# Experimental data reported in PubChem BioAssay AID540256 (National Center for Advancing Translational Sciences (NCATS), 2011).
# The whole screen tested about 300,000 compounds, of which about 3,700 (1.2%) were called active. Inconclusive results, whose numbers are uncertain, are shown with a selection of clear calls. Calls come from the whole dose curve; tested in HEK293 cells. A potency beside an inconclusive call is a rough fit, not a confirmed value.
# Assay: qHTS for Inhibitors of binding or entry into cells for Lassa Virus; note: nearly all actives have a fitted effect of over 50% in size
# Settings: Lassa virus pseudotype entry inhibition, cell reporter; activity change, negative = inhibition: at 37.9 µM (top of the series) unless noted
# % is set by controls: 0 for no effect and ±100 for the full control effect; potency is the fitted concentration of half-maximal effect.
SMILES,Potency,"activity change, negative = inhibition"
CCOC(=O)N1CCN(CC(=O)Nc2ccc(F)c(F)c2)CC1,"inconclusive: 35.5 µM [inhibitor, partial curve, poor fit]",–
Cc1nn(-c2cc(N3CCCCCC3)ccc2[N+](=O)[O-])c(=O)c2ccccc12,"inconclusive: 29.1 µM [inhibitor, single point]",–
COc1ccc(O)c(/C=N/NC(=O)CSc2nnc(C)n2-c2ccccc2)c1,"inconclusive: 31.6 µM [inhibitor, partial curve, poor fit]",–
Cc1ccc(C(=O)N2C(=O)C(c3ccccc3)Oc3ccccc32)cc1 (centres undefined),"inconclusive: 22.4 µM [inhibitor, single point]",–
Nc1cccc(S(=O)(=O)c2cccc(N)c2)c1,"inconclusive: 25.1 µM [activator, single point]",–
Cc1c(N/N=C(\C#N)C(=O)c2ccc(Cl)cc2)c(=O)n(-c2ccccc2)n1C,"inconclusive: 2.24 µM [inhibitor, full curve]",–
CCOC(=O)c1c(NC(=O)CSc2nc3cc(Cl)ccc3c(=O)n2Cc2ccco2)sc(C(=O)N(C)C)c1C,"inconclusive: 20 µM [inhibitor, single point]",–
O=C1C(C2=C(O)c3ccccc3C2=O)=Nc2ccccc21,"inconclusive: 7.3 µM [inhibitor, partial curve]",–
CCCCCN1C(C(=O)c2ccccc2)=C(NC(=O)c2ccccc2Cl)c2ccccc2S1(=O)=O,"inconclusive: 1 µM [inhibitor, full curve, poor fit]",–
O=[N+]([O-])c1cc(S(=O)(=O)C(F)(F)F)ccc1Sc1nc2ccccc2s1,"inconclusive: 15.8 µM [inhibitor, single point]",–
O=C(O)CSc1cc(C(=O)c2ccccc2O)cn2c(=O)c3c4c(sc3nc12)CCCC4,"inconclusive: 35.5 µM [inhibitor, single point]",–
Cc1c(CC(=O)O)c(=O)oc2c(C)c3occ(-c4ccccc4)c3cc12,"inconclusive: 0.631 µM [inhibitor, single point]",–
N#Cc1cn(-c2ccccc2)nc1-c1ccc2c(c1)OCCO2,"inconclusive: 3.55 µM [activator, partial curve, poor fit]",–
CCN1CCN(C(=O)c2ccc3c(c2)N(Cc2cccc(F)c2)C(=O)c2ccccc2S3)CC1,–,inactive: -13.2% [at 46.1 µM]
COc1ccc2c(c1OC)C(=O)N1c3ccccc3C(=O)N(c3ccccc3F)C21 (centres undefined),"inconclusive: 6.31 µM [inhibitor, partial curve, poor fit]",–
O[C@H]1CN(Cc2cccs2)[C@@H](c2ccccc2)C[C@H]1n1cc(-c2ccc(F)cc2)nn1,"inconclusive: 3.15 µM [activator, partial curve, poor fit]",–
Clc1nc(Nc2ccc(N3CCOCC3)cc2)c2ccccc2n1,–,inactive: -6.1%
O=S(=O)(c1ccc2nc(COc3ccc(Cl)cc3Cl)[nH]c2c1)N1CCOCC1,–,inactive: -1.22%
CCc1nnc(NS(=O)(=O)c2ccc(NC(=O)c3ccc(S(=O)(=O)N(CC)CC)cc3)cc2)s1,"inconclusive: 14.1 µM [activator, single point]",–
O=C(NC1CCCCC1c1ccccc1)c1ccccc1 (centres undefined),"inconclusive: 4.47 µM [activator, single point]",–

SMILES,Potency,"activity change, negative = inhibition"
COc1ccc2nc(NC(=S)N(C)C)sc2c1,"inconclusive: 17.8 µM [inhibitor, single point]",–
CC1=Cc2ccccc2C(C#N)N1C(=O)c1ccccc1 (centres undefined),"inconclusive: 35.5 µM [inhibitor, single point]",–
COc1ccc(C(=O)/C=C/c2ccc(N3CCCCC3)c([N+](=O)[O-])c2)c(OC)c1,"inconclusive: 35.5 µM [inhibitor, single point]",–
COc1ccc([N+](=O)[O-])cc1N(CC(O)CN1CCCCC1)S(=O)(=O)c1ccc(C)cc1 (centres undefined),–,inactive: -19.7%
CC(C)Cc1nnc(NC(=O)c2ccc(S(=O)(=O)N3CCCC3)cc2)s1,–,inactive: 17.5%
CCNC(=O)CC1C(=O)N(C)C(=S)N1NC(=O)c1ccc(Cl)cc1 (centres undefined),–,inactive: -8.44%
CCCn1nc(C(=O)NNC(=O)c2cc(S(=O)(=O)NC)ccc2Br)c2ccccc2c1=O,"inconclusive: 1.58 µM [activator, full curve, poor fit]",–
COc1cccc(CN(C)CC(=O)Nc2cc(S(=O)(=O)N3CCCC3)ccc2Cl)c1OC,"inconclusive: 31.6 µM [inhibitor, partial curve, poor fit]",–
Cc1cccc(-c2nc(SCC(=O)Nc3ccc4c(c3)OCO4)c(-c3ccccc3)[nH]2)c1,"inconclusive: 14.1 µM [inhibitor, partial curve, poor fit]",–
O=C(CCn1c(=O)c2cccn2c2cccnc21)N1CCN(c2cccc(Cl)c2)CC1,"inconclusive: 22.4 µM [inhibitor, single point]",–
CCS(=O)(=O)CCSc1nc(-c2ccc(Br)cc2)cc(-c2ccccc2)c1C#N,–,inactive: 15.9% [at 46.1 µM]
Cc1cccc(NC(=O)CCn2nc(-c3ccccc3)c3ccccc3c2=O)c1,"inconclusive: 10 µM [inhibitor, single point]",–
Cc1ccc(-c2nc3cc(Br)cnc3nc2-c2ccc(C)cc2)cc1,"inconclusive: 35.5 µM [inhibitor, single point]",–
CCC(=O)Nc1cccc(NC(=O)c2ccc3c(c2)OCO3)c1,–,inactive: 20.3%
CC1=C(C(=O)Nc2ccccc2C)C(c2cccnc2)n2nc(SCc3ccccc3F)nc2N1 (centres undefined),"inconclusive: 3.55 µM [inhibitor, single point]",–
O=C(NCC(=O)N(Cc1ccccc1)C(C(=O)NCC1CCCO1)c1ccccc1)c1cccs1 (centres undefined),–,inactive: -1.09%
COc1cc(CN2CC(=O)N(c3ccccc3Cl)C2=S)cc(OC)c1OC,"inconclusive: 8.91 µM [inhibitor, partial curve, poor fit]",–
CN1/C(=C\C(=O)COC(=O)c2ccc(O)c(O)c2)C(C)(C)c2ccccc21,"inconclusive: 3.98 µM [inhibitor, full curve]",–
COc1ccc2cc3cc(C(=O)NCCc4ccc(OC)c(OC)c4)oc3nc2c1,"inconclusive: 20.6 µM [inhibitor, partial curve, poor fit]",–

# Single records (already shown).
# CCNC(=O)CC1C(=O)N(C)C(=S)N1NC(=O)c1ccc(Cl)cc1 (centres undefined) is entered as activity change, negative = inhibition: inactive: -8.44%
# CCN1CCN(C(=O)c2ccc3c(c2)N(Cc2cccc(F)c2)C(=O)c2ccccc2S3)CC1 is entered as activity change, negative = inhibition: inactive: -13.2% [at 46.1 µM]
